Assay results: paper PMC7819943, “Rice protein-binding microarrays: a tool to detect cis-acting elements near promoter regions in rice”
Some of the results follow.

Molecular target: T1, OsSMF1 (Oryza sativa, UniProt Q6ZLB0 1-436)
T1 sequence: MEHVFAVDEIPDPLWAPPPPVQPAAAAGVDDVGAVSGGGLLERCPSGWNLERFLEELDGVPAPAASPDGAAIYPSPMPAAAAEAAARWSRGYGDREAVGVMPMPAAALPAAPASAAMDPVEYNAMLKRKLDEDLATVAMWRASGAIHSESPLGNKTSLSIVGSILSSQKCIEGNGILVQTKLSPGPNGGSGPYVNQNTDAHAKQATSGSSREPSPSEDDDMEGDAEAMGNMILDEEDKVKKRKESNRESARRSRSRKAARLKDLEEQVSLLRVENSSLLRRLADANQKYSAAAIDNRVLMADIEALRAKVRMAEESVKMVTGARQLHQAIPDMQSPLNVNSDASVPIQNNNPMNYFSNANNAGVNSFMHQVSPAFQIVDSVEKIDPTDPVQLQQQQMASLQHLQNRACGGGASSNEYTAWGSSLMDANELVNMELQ
Test: protein-binding microarray (RPBM); PBS, 2% BSA, 51.3 ng/ul salmon testes DNA, 50 uM zinc acetate, 200 nM TF, 25 C, 1 h; high values mean tight binding
Settings: protein: recombinant; tags: N-terminal polyhistidine and DsRed monomer fusion (pET32a); chain copies: 2; label: CyDye5-dUTP incorporated in the synthesized complementary strand; 3' TTTTT single-stranded linker to array surface; dsDNA, one strand shown
How it was run: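 Binding signal is reported as fluorescence intensity per feature (arbitrary units) from an Axon 4000B scanner. Incubation used 200 nM of each Ni–NTA-purified, N-terminally polyhistidine- and DsRed-fused transcription factor from E. coli BL21-CodonPlus on a double-stranded custom Agilent array for 1 h at 25 °C, with 50 µM zinc acetate in the buffer, followed by washing.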

Sequence	binding signal
ATCGCCGCCGGCGACACGCCATCTCAAATTCCGGTCGGACCGGAGTCACCTAGTGCAG	5400 fluorescence intensity (a.u.)
CACAGCCTTGTGTACAAATCACTTTGCACGTGACATAGCTCGGAGTCACCTAGTGCAG	3800 fluorescence intensity (a.u.)
AAACTTCTAACTTTTCCGTCACATCGTTCCAATTTCAACCCGGAGTCACCTAGTGCAG	3240 fluorescence intensity (a.u.)
CCGCACGCGCTCCCTTCACCCACCTCGATCGAGCTCCATGCGGAGTCACCTAGTGCAG	3570 fluorescence intensity (a.u.)
CGGCTCCCGGGACACGACACAGCGCACGCCCAGAGCGCGCCGGAGTCACCTAGTGCAG	3700 fluorescence intensity (a.u.)
CACTCCAAACATGTTTACATGTCGACGGCTGACAAGATATCGGAGTCACCTAGTGCAG	3280 fluorescence intensity (a.u.)
TTCGAATTTCGCCCTTACGATGTTAGCAACGGTGCTGACGCGGAGTCACCTAGTGCAG	4700 fluorescence intensity (a.u.)
TTCTTCCCTTTGAGCAGCAGCAGCAGTGAGCCGTCCTGTGCGGAGTCACCTAGTGCAG	32300 fluorescence intensity (a.u.)
TGGTCAAAAGAAATTGTTTCCTCCATTTCCTCCTCAGCACCGGAGTCACCTAGTGCAG	3730 fluorescence intensity (a.u.)
CAGCTGGGCCCCACGCGGCAGTGACACGCAACGGACGTGGCGGAGTCACCTAGTGCAG	9030 fluorescence intensity (a.u.)
CAGCTGGGTGCTGATGACTGTCTTGTCATCATTTGATTATCGGAGTCACCTAGTGCAG	6280 fluorescence intensity (a.u.)
ATTTGATAAATGGGATGCCACGTGTACACCACGTCAACAGCGGAGTCACCTAGTGCAG	31000 fluorescence intensity (a.u.)
ATCTTTTGGCTGCCAGCTTGGTGAGGTTACTAATAAGCTGCGGAGTCACCTAGTGCAG	3290 fluorescence intensity (a.u.)
CCTGTTCGATGGCCCCGGGAACACCCATGAGCGTGGCACACGGAGTCACCTAGTGCAG	3510 fluorescence intensity (a.u.)
ATTCCAACATTTATAATGTACAAACACAGAACAGGACATGCGGAGTCACCTAGTGCAG	3230 fluorescence intensity (a.u.)
CCCGAGAGCCGTACGTACTACAGAAATACAAGTGCTAACTCGGAGTCACCTAGTGCAG	35900 fluorescence intensity (a.u.)
CCTCCTTGCTTGCTTACATTGCCGCCACCGCCACCTCACACGGAGTCACCTAGTGCAG	8360 fluorescence intensity (a.u.)
CCTCTAATACGTGGGAGGTGGCGGCAGTGGCTAATCCGTACGGAGTCACCTAGTGCAG	3790 fluorescence intensity (a.u.)
TCTTTGCTGACTAGATTGCCATGTTGGCACCATATGTATACGGAGTCACCTAGTGCAG	18300 fluorescence intensity (a.u.)
GCAGAGGGTCCCGATAACGATGACCCTACCTGCCAGTCAACGGAGTCACCTAGTGCAG	4090 fluorescence intensity (a.u.)
GGTGAGCGACGATGGCGATGGCGTCGTCGTCGTCGGCGTCCGGAGTCACCTAGTGCAG	37700 fluorescence intensity (a.u.)

Sequence	binding signal
AGAGAGATAGTGGTGGTGGTGGTGGGGCACTGAGAATCCACGGAGTCACCTAGTGCAG	17600 fluorescence intensity (a.u.)
AATCGTAGTGTAATTACACTGTAACTTGCATGTAACTACACGGAGTCACCTAGTGCAG	21300 fluorescence intensity (a.u.)
CCGTTCTCCAGATCCGCACCGCCACCGCCGCCGCCGCGCGCGGAGTCACCTAGTGCAG	3250 fluorescence intensity (a.u.)
CAAGAATGTACTGAGTACGTCTCAATCCACGTGTTTGAGCCGGAGTCACCTAGTGCAG	4960 fluorescence intensity (a.u.)
CAACTCAAATGCTTTAACAATGTCGGATGACATGGAATGACGGAGTCACCTAGTGCAG	6080 fluorescence intensity (a.u.)
ATTGTGCTCAAAATAATAAATCCTGACGTCAATTGTCGTCCGGAGTCACCTAGTGCAG	4590 fluorescence intensity (a.u.)
CCACCGCCACTCCCACCCAACCACAGTTCTAGTCTCCCCTCGGAGTCACCTAGTGCAG	26000 fluorescence intensity (a.u.)
TGGGCGTCGGCCTGCGCGAGCAGAGGCGCCACGGGGCTCCCGGAGTCACCTAGTGCAG	3320 fluorescence intensity (a.u.)
TGGTTTGCGGTGGTGCGCGCGCGGCTTCTTCTCGGGGTGGCGGAGTCACCTAGTGCAG	3650 fluorescence intensity (a.u.)
AATGGGCATGGTGAAACTTGGCAGTGACAAGGGATTTGCACGGAGTCACCTAGTGCAG	3620 fluorescence intensity (a.u.)
CGAGAGACGCGTCACCTCCTCCCCGCCGCCGCCGCCGCCGCGGAGTCACCTAGTGCAG	7500 fluorescence intensity (a.u.)
TCTCTCGAATTCGCGAACACGCGACACGACGTCATTTTCTCGGAGTCACCTAGTGCAG	6350 fluorescence intensity (a.u.)
CAGAATCTAAAGCTCCCTCAAACAGGCCATATATCGATCCCGGAGTCACCTAGTGCAG	3160 fluorescence intensity (a.u.)
CAAGGCAGTCATTTTGCCCTCGGATCGGGTGACGTGGCGCCGGAGTCACCTAGTGCAG	36500 fluorescence intensity (a.u.)
CGATGACTGAATTATCACACTTACGTATGGTGACTATTAACGGAGTCACCTAGTGCAG	3500 fluorescence intensity (a.u.)
TTGCTAGTATTTTGGTACGTCACCTGTATTGGAGTCAGTTCGGAGTCACCTAGTGCAG	5540 fluorescence intensity (a.u.)
ATGTGTTCTGATAGTAATAAACAAATATGTTATATTACTACGGAGTCACCTAGTGCAG	3270 fluorescence intensity (a.u.)
TGTTGCTAACCTCCAGATGGAGCTCCAGCAAGCACGTGATCGGAGTCACCTAGTGCAG	3200 fluorescence intensity (a.u.)
ACTCTTATTAATTCGAAAGATCCTACACACGTGTCGATTTCGGAGTCACCTAGTGCAG	9630 fluorescence intensity (a.u.)
CCCTCCATCACCACCATGGTGCCATCAACATTGAACTGTTCGGAGTCACCTAGTGCAG	3390 fluorescence intensity (a.u.)
TCGCGCGCGGCACACCTTCACGCTGCACCAATCCGCATCGCGGAGTCACCTAGTGCAG	4370 fluorescence intensity (a.u.)

Exported in markdown: entries from further up.

| Sequence | binding signal |
| --- | --- |
| TGGGCGTCGGCCTGCGCGAGCAGAGGCGCCACGGGGCTCCCGGAGTCACCTAGTGCAG | 3320 fluorescence intensity (a.u.) |
| TGGTTTGCGGTGGTGCGCGCGCGGCTTCTTCTCGGGGTGGCGGAGTCACCTAGTGCAG | 3650 fluorescence intensity (a.u.) |
| AATGGGCATGGTGAAACTTGGCAGTGACAAGGGATTTGCACGGAGTCACCTAGTGCAG | 3620 fluorescence intensity (a.u.) |
| CGAGAGACGCGTCACCTCCTCCCCGCCGCCGCCGCCGCCGCGGAGTCACCTAGTGCAG | 7500 fluorescence intensity (a.u.) |
| TCTCTCGAATTCGCGAACACGCGACACGACGTCATTTTCTCGGAGTCACCTAGTGCAG | 6350 fluorescence intensity (a.u.) |
| CAGAATCTAAAGCTCCCTCAAACAGGCCATATATCGATCCCGGAGTCACCTAGTGCAG | 3160 fluorescence intensity (a.u.) |
| CAAGGCAGTCATTTTGCCCTCGGATCGGGTGACGTGGCGCCGGAGTCACCTAGTGCAG | 36500 fluorescence intensity (a.u.) |
| CGATGACTGAATTATCACACTTACGTATGGTGACTATTAACGGAGTCACCTAGTGCAG | 3500 fluorescence intensity (a.u.) |
